# In the supplement of paper PMC8728848:
# The list shows a part of the results.
# B1: SUN4 (Saccharomyces cerevisiae), P53616 (protein)
# chain: MGSSHHHHHHSSGLVPRGSHNGSIYGDLADFSGPYEKFEDGTIPCGQFPSGQGVIPISWLDEGGWSGVENTDTSTGGSCKEGSYCSYACQPGMSKTQWPSDQPSDGRSIGGLLCKDGYLYRSNTDTDYLCEWGVDAAYVVSELSNDVAICRTDYPGTENMVIPTYVQAGDSLPLTVVDQDTYYTWQGLKTSAAYYVNNAGISVEDACVWGSSSSGVGNWAPLNFGAGSSDGVAYLSLIPNPNNGNALNFNVKIVAADDSSTVNGECIYENGSFSGGSDGCTVSVTAGKAKFVLYN
# Tests used:
# Test in all cases: glycan array binding signal (z-score within array); higher = stronger binding
# Conditions in all cases: glycan notation: IUPAC condensed, linker removed; mutation: Q318A
# [1] = target: Neu5Ac(a2-3)Gal(b1-4)GlcNAc(b1-3)[Neu5Ac(a2-3)Gal(b1-4)GlcNAc(b1-6)]GalNAc
# Method in brief: (§1)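 Columns mapping to the same glycan were averaged after glycan names were converted to IUPAC-condensed notation. The data come from 3228 arrays in the Consortium for Functional Glycomics database, limited to those with an available protein sequence. Binding is reported as a within-array Z-score averaged across arrays of one protein sequence and across linkers.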
# [2] = target: Neu5Ac(a2-3)Gal(b1-4)GlcNAc(b1-6)GalNAc
# Method in brief: as §1
# [3] = target: Neu5Ac(a2-3)Gal(b1-4)GlcNAc(b1-6)[Gal(b1-3)]GalNAc
# Method in brief: as §1
# [4] = target: Neu5Ac(a2-3)Gal(b1-4)GlcNAc(b1-6)[Neu5Ac(a2-3)Gal(b1-3)]GalNAc
# Method in brief: as §1
# [5] = target: Neu5Ac(a2-3)Gal(b1-4)GlcNAc6S
# Method in brief: as §1
# [6] = target: Neu5Ac(a2-3)Gal(b1-4)[Fuc(a1-3)]GlcNAc
# Method in brief: as §1
# [7] = target: Neu5Ac(a2-3)Gal(b1-4)[Fuc(a1-3)]GlcNAc(b1-2)Man
# Method in brief: as §1
# [8] = target: Neu5Ac(a2-3)Gal(b1-4)[Fuc(a1-3)]GlcNAc(b1-3)Gal
# Method in brief: as §1
# [9] = target: Neu5Ac(a2-3)Gal(b1-4)[Fuc(a1-3)]GlcNAc(b1-3)Gal(b1-4)GlcNAc
# Method in brief: as §1
# [10] = target: Neu5Ac(a2-3)Gal(b1-4)[Fuc(a1-3)]GlcNAc(b1-3)Gal(b1-4)[Fuc(a1-3)]GlcNAc(b1-3)Gal(b1-4)[Fuc(a1-3)]GlcNAc
# Method in brief: as §1
# [11] = target: Neu5Ac(a2-3)Gal(b1-4)[Fuc(a1-3)]GlcNAc(b1-3)GalNAc
# Method in brief: as §1
# [12] = target: Neu5Ac(a2-3)Gal(b1-4)[Fuc(a1-3)]GlcNAc(b1-6)[Gal(b1-3)]GalNAc
# Method in brief: as §1
# [13] = target: Neu5Ac(a2-3)Gal(b1-4)[Fuc(a1-3)]GlcNAc(b1-6)[Neu5Ac(a2-3)Gal(b1-3)]GalNAc
# Method in brief: as §1
# [14] = target: Neu5Ac(a2-3)Gal(b1-4)[Fuc(a1-3)]GlcNAc6S
# Method in brief: as §1
# [15] = target: Neu5Ac(a2-3)Gal6S(b1-4)GlcNAc
# Method in brief: as §1
# [16] = target: Neu5Ac(a2-3)Gal6S(b1-4)[Fuc(a1-3)]GlcNAc
# Method in brief: as §1
# Neu5Ac(a2-3)GalNAc = target: Neu5Ac(a2-3)GalNAc
# Method in brief: as §1
# [17] = target: Neu5Ac(a2-3)GalNAc(b1-4)GlcNAc
# Method in brief: as §1
# [18] = target: Neu5Ac(a2-3)[GalNAc(b1-4)]Gal(b1-4)Glc
# Method in brief: as §1
# [19] = target: Neu5Ac(a2-3)[GalNAc(b1-4)]Gal(b1-4)GlcNAc
# Method in brief: as §1
# [20] = target: Neu5Ac(a2-3)[GalNAc(b1-4)]Gal(b1-4)GlcNAc(b1-3)GalNAc
# Method in brief: as §1
# [21] = target: Neu5Ac(a2-3)[Neu5Ac(a2-6)]GalNAc
# Method in brief: as §1
# Neu5Ac(a2-6)Gal = target: Neu5Ac(a2-6)Gal
# Method in brief: as §1
# [22] = target: Neu5Ac(a2-6)Gal(b1-3)GlcNAc(b1-3)[Gal(b1-4)GlcNAc(b1-6)]Gal(b1-4)Glc
# Method in brief: as §1
# Neu5Ac(a2-6)Gal(b1-4)Glc = target: Neu5Ac(a2-6)Gal(b1-4)Glc
# Method in brief: as §1
# [23] = target: Neu5Ac(a2-6)Gal(b1-4)GlcNAc
# Method in brief: as §1
# [24] = target: Neu5Ac(a2-6)Gal(b1-4)GlcNAc(b1-2)Man
# Method in brief: as §1
# [25] = target: Neu5Ac(a2-6)Gal(b1-4)GlcNAc(b1-2)Man(a1-3)Man(b1-4)GlcNAc(b1-4)GlcNAc
# Method in brief: as §1
# [26] = target: Neu5Ac(a2-6)Gal(b1-4)GlcNAc(b1-2)Man(a1-3)[Gal(b1-4)GlcNAc(b1-2)Man(a1-6)]Man(b1-4)GlcNAc(b1-4)GlcNAc
# Method in brief: as §1
# [27] = target: Neu5Ac(a2-6)Gal(b1-4)GlcNAc(b1-2)Man(a1-3)[GlcNAc(b1-2)Man(a1-6)]Man(b1-4)GlcNAc(b1-4)GlcNAc
# Method in brief: as §1
# [28] = target: Neu5Ac(a2-6)Gal(b1-4)GlcNAc(b1-2)Man(a1-3)[GlcNAc(b1-4)][Neu5Ac(a2-6)Gal(b1-4)GlcNAc(b1-2)Man(a1-6)]Man(b1-4)GlcNAc(b1-4)GlcNAc
# Method in brief: as §1
# [29] = target: Neu5Ac(a2-6)Gal(b1-4)GlcNAc(b1-2)Man(a1-3)[Man(a1-6)]Man(b1-4)GlcNAc(b1-4)GlcNAc
# Method in brief: as §1
# [30] = target: Neu5Ac(a2-6)Gal(b1-4)GlcNAc(b1-2)Man(a1-3)[Neu5Ac(a2-3)Gal(b1-4)GlcNAc(b1-2)Man(a1-6)]Man(b1-4)GlcNAc(b1-4)GlcNAc
# Method in brief: as §1
# [31] = target: Neu5Ac(a2-6)Gal(b1-4)GlcNAc(b1-2)Man(a1-3)[Neu5Ac(a2-6)Gal(b1-4)GlcNAc(b1-2)Man(a1-6)]Man(b1-4)GlcNAc(b1-4)GlcNAc
# Method in brief: as §1
# [32] = target: Neu5Ac(a2-6)Gal(b1-4)GlcNAc(b1-2)Man(a1-3)[Neu5Ac(a2-6)Gal(b1-4)GlcNAc(b1-2)Man(a1-6)]Man(b1-4)GlcNAc(b1-4)[Fuc(a1-6)]GlcNAc
# Method in brief: as §1
# [33] = target: Neu5Ac(a2-6)Gal(b1-4)GlcNAc(b1-2)Man(a1-6)Man(b1-4)GlcNAc(b1-4)GlcNAc
# Method in brief: as §1
# [34] = target: Neu5Ac(a2-6)Gal(b1-4)GlcNAc(b1-2)Man(a1-6)[Gal(b1-4)GlcNAc(b1-2)Man(a1-3)]Man(b1-4)GlcNAc(b1-4)GlcNAc
# Method in brief: as §1
# [35] = target: Neu5Ac(a2-6)Gal(b1-4)GlcNAc(b1-2)Man(a1-6)[GlcNAc(b1-2)Man(a1-3)]Man(b1-4)GlcNAc(b1-4)GlcNAc
# Method in brief: as §1
# [36] = target: Neu5Ac(a2-6)Gal(b1-4)GlcNAc(b1-2)Man(a1-6)[Man(a1-3)]Man(b1-4)GlcNAc(b1-4)GlcNAc
# Method in brief: as §1
# [37] = target: Neu5Ac(a2-6)Gal(b1-4)GlcNAc(b1-2)[Neu5Ac(a2-6)Gal(b1-4)GlcNAc(b1-4)]Man(a1-3)[GlcNAc(b1-4)][Neu5Ac(a2-6)Gal(b1-4)GlcNAc(b1-2)[Neu5Ac(a2-6)Gal(b1-4)GlcNAc(b1-6)]Man(a1-6)]Man(b1-4)GlcNAc(b1-4)GlcNAc
# Method in brief: as §1
# [38] = target: Neu5Ac(a2-6)Gal(b1-4)GlcNAc(b1-2)[Neu5Ac(a2-6)Gal(b1-4)GlcNAc(b1-4)]Man(a1-3)[GlcNAc(b1-4)][Neu5Ac(a2-6)Gal(b1-4)GlcNAc(b1-4)Man(a1-6)]Man(b1-4)GlcNAc(b1-4)GlcNAc
# Method in brief: as §1
# [39] = target: Neu5Ac(a2-6)Gal(b1-4)GlcNAc(b1-2)[Neu5Ac(a2-6)Gal(b1-4)GlcNAc(b1-6)]Man(a1-6)[Neu5Ac(a2-6)Gal(b1-4)GlcNAc(b1-2)Man(a1-3)][GlcNAc(b1-4)]Man(b1-4)GlcNAc(b1-4)GlcNAc
# Method in brief: as §1
# [40] = target: Neu5Ac(a2-6)Gal(b1-4)GlcNAc(b1-3)Gal(b1-3)GlcNAc
# Method in brief: as §1
# [41] = target: Neu5Ac(a2-6)Gal(b1-4)GlcNAc(b1-3)Gal(b1-4)GlcNAc
# Method in brief: as §1
# [42] = target: Neu5Ac(a2-6)Gal(b1-4)GlcNAc(b1-3)Gal(b1-4)GlcNAc(b1-2)Man(a1-3)[Neu5Ac(a2-6)Gal(b1-4)GlcNAc(b1-3)Gal(b1-4)GlcNAc(b1-2)Man(a1-6)]GalNAc
# Method in brief: as §1
# [43] = target: Neu5Ac(a2-6)Gal(b1-4)GlcNAc(b1-3)Gal(b1-4)GlcNAc(b1-3)Gal(b1-4)GlcNAc
# Method in brief: as §1
binder,measurement,setting,value
B1,glycan array binding signal (z-score),[1],2.5
same,glycan array binding signal (z-score),[2],-0.453
same,glycan array binding signal (z-score),[3],-0.111
same,glycan array binding signal (z-score),[4],-0.893
same,glycan array binding signal (z-score),[5],-0.572
same,glycan array binding signal (z-score),[6],-0.771
same,glycan array binding signal (z-score),[7],-0.965
same,glycan array binding signal (z-score),[8],0
same,glycan array binding signal (z-score),[9],-0.286
same,glycan array binding signal (z-score),[10],-0.091
same,glycan array binding signal (z-score),[11],0.527
same,glycan array binding signal (z-score),[12],0.041
same,glycan array binding signal (z-score),[13],3.41
same,glycan array binding signal (z-score),[14],0.647
same,glycan array binding signal (z-score),[15],0.026
same,glycan array binding signal (z-score),[16],-0.138
same,glycan array binding signal (z-score),Neu5Ac(a2-3)GalNAc,0.196
same,glycan array binding signal (z-score),[17],-0.252
same,glycan array binding signal (z-score),[18],-1.2
same,glycan array binding signal (z-score),[19],-0.774
same,glycan array binding signal (z-score),[20],0.404
same,glycan array binding signal (z-score),[21],-0.793
same,glycan array binding signal (z-score),Neu5Ac(a2-6)Gal,1.02
same,glycan array binding signal (z-score),[22],0.911
same,glycan array binding signal (z-score),Neu5Ac(a2-6)Gal(b1-4)Glc,-0.729
same,glycan array binding signal (z-score),[23],-0.279
same,glycan array binding signal (z-score),[24],0.277
same,glycan array binding signal (z-score),[25],-1.09
same,glycan array binding signal (z-score),[26],-0.494
same,glycan array binding signal (z-score),[27],0.327
same,glycan array binding signal (z-score),[28],-0.109
same,glycan array binding signal (z-score),[29],-1
same,glycan array binding signal (z-score),[30],-0.559
same,glycan array binding signal (z-score),[31],0.106
same,glycan array binding signal (z-score),[32],-0.42
same,glycan array binding signal (z-score),[33],0.446
same,glycan array binding signal (z-score),[34],-1.2
same,glycan array binding signal (z-score),[35],-0.548
same,glycan array binding signal (z-score),[36],-0.205
same,glycan array binding signal (z-score),[37],-0.64
same,glycan array binding signal (z-score),[38],-0.278
same,glycan array binding signal (z-score),[39],-0.221
same,glycan array binding signal (z-score),[40],-0.654
same,glycan array binding signal (z-score),[41],-0.838
same,glycan array binding signal (z-score),[42],0.356
same,glycan array binding signal (z-score),[43],-0.205

# Fetched one by one from the entries so far, 2 records:
binder,measurement,setting,value
B1,glycan array binding signal (z-score),[23],-0.279
same,glycan array binding signal (z-score),Neu5Ac(a2-3)GalNAc,0.196
